PubChem BioAssay AID493246 | Drosophila RNAi Screening Center | 2011
Purpose: 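Genome-wide search for dsRNAs that reduce cell number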 (primary screen). Cell system: Drosophila Kc and S2R+ cells. Reagent: long dsRNA against Drosophila genes. Measured: 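Cell number per well after knock-down, printed as raw plate values; calls were based on per-plate z-scores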. Reading the numbers: Kc cell number and S2R+ cell number: higher = more cells remaining. Rule for the call: 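Counted as a hit if cell number falls by a z-score of at least 3 within its plate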.
The deposit covers about 21,000 reagents; shown is an unselected part of those with a known target gene and a result. Of all reagents, 429 (2%) were called active. 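Values are raw and not normalised between plates; calls rest on per-plate z-scores that were not deposited.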 A number with no mark means an inactive call. No sequences are given here. Not given: the amount of reagent, the time to read-out.

Kc cell number, rep 1 | Kc cell number, rep 2 | S2R+ cell number, rep 1 | S2R+ cell number, rep 2 | gene knocked down | dsRNA
1.18e6 | 1.40e6 | 1.31e6 | 1.38e6 | CG4306 (GeneID 40017) | DRSC10409
1.35e6 | 1.29e6 | 1.14e6 | 1.16e6 | Cp19 (GeneID 39000) | DRSC11121
1.42e6 | 1.58e6 | 1.25e6 | 1.36e6 | CG13065 (GeneID 39786) | DRSC09948
1.29e6 | 1.66e6 | 1.07e6 | 1.11e6 | CG34299 (GeneID 5740430) | DRSC13974
1.22e6 | 1.35e6 | 1.16e6 | 1.23e6 | S-Lap2 (GeneID 326209) | DRSC10628
1.53e6 | 1.56e6 | 1.04e6 | 1.18e6 | CG15387 (GeneID 33403) | DRSC00401
1.42e6 | 1.43e6 | 1.17e6 | 1.23e6 | CG5355 (GeneID 34421) | DRSC02844
1.34e6 | 1.48e6 | 1.02e6 | 1.02e6 | CG5504 (GeneID 48844) | DRSC04701
1.73e6 | 1.66e6 | 1.40e6 | 1.33e6 | Zip42C.2 (GeneID 35580) | DRSC05004
1.36e6 | 1.36e6 | 9.39e5 | 1.13e6 | CG5953 (GeneID 34985) | DRSC01546
1.17e6 (active) | 1.29e6 | 7.97e5 | 9.81e5 | CG5953 (GeneID 34985) | DRSC02914
1.43e6 | 1.41e6 | 1.09e6 | 1.22e6 | CG4367 (GeneID 42409) | DRSC15568
1.35e6 | 1.45e6 | 1.10e6 | 1.22e6 | Optix (GeneID 44108) | DRSC05078
1.41e6 | 1.46e6 | 1.13e6 | 1.09e6 | Optix (GeneID 44108) | DRSC07484
5.83e5 | – | 9.43e5 | – | Mipp2 (GeneID 31544) | DRSC18682
1.68e6 | 1.94e6 | 1.23e6 | 1.37e6 | Or85c (GeneID 41008) | DRSC16766
1.30e6 | 1.31e6 | 9.41e5 | 1.01e6 | CG14304 (GeneID 42232) | DRSC14783
1.44e6 | 1.44e6 | 1.09e6 | 1.14e6 | CG32572 (GeneID 32657) | DRSC19525
1.42e6 | 1.39e6 | 1.08e6 | 1.13e6 | CG32572 (GeneID 32657) | DRSC19526
1.50e6 | 1.51e6 | 1.21e6 | 1.29e6 | PIG-O (GeneID 37118) | DRSC06123
1.34e6 | 1.35e6 | 1.23e6 | 1.28e6 | mfr (GeneID 39016) | DRSC10543
1.46e6 | 1.44e6 | 1.12e6 | 1.20e6 | tinc (GeneID 42148) | DRSC14798
1.46e6 | 1.47e6 | 1.11e6 | 1.24e6 | tinc (GeneID 42148) | DRSC14799
1.48e6 | 1.46e6 | 1.01e6 | 1.08e6 | tinc (GeneID 42148) | DRSC16308
1.35e6 | 1.39e6 | 1.02e6 | 1.13e6 | tinc (GeneID 42148) | DRSC16309
1.59e6 | 1.67e6 | 1.23e6 | 1.48e6 | CG9500 (GeneID 33888) | DRSC03237
1.44e6 | 1.42e6 | 1.23e6 | 1.26e6 | CG13458 (GeneID 39646) | DRSC10005
1.39e6 | 1.38e6 | 1.14e6 | 1.28e6 | CG31178 (GeneID 42575) | DRSC14590
1.40e6 | 1.50e6 | 1.23e6 | 1.34e6 | NANS (GeneID 41528) | DRSC15743
1.61e6 | 1.63e6 | 1.30e6 | 1.50e6 | Sema1a (GeneID 34192) | DRSC03433
1.50e6 | 1.57e6 | 1.24e6 | 1.36e6 | CG16853 (GeneID 34771) | DRSC01877
1.73e6 | 1.78e6 | 1.26e6 | 1.46e6 | meng (GeneID 33948) | DRSC02134
1.06e6 | 1.07e6 | 6.80e5 | 7.52e5 | Hsc70-3 (GeneID 32133) | DRSC20253
1.49e6 | 1.58e6 | 1.19e6 | 1.27e6 | Blos2 (GeneID 39234) | DRSC10147
1.54e6 | 1.58e6 | 1.16e6 | 1.24e6 | Wnt5 (GeneID 32838) | DRSC20300
1.48e6 | 1.55e6 | 1.26e6 | 1.41e6 | Edg78E (GeneID 40354) | DRSC11863
1.48e6 | 1.55e6 | 1.37e6 | 1.42e6 | CG8773 (GeneID 41634) | DRSC16444
1.61e6 | 1.53e6 | 1.07e6 | 1.31e6 | Akh (GeneID 38495) | DRSC08138
1.52e6 | 1.52e6 | 1.21e6 | 1.22e6 | CG31465 (GeneID 42577) | DRSC16090
1.44e6 | 1.62e6 | 1.23e6 | 1.34e6 | Alg7 (GeneID 34711) | DRSC02833
1.62e6 | 1.68e6 | 1.33e6 | 1.50e6 | Alg7 (GeneID 34711) | DRSC02834
1.60e6 | 1.54e6 | 9.20e5 | 9.70e5 | Kmn1 (GeneID 32102) | DRSC19666
1.41e6 | 1.46e6 | 1.17e6 | 1.29e6 | CG42404 (GeneID 41842) | DRSC15558
1.43e6 | 1.51e6 | 1.28e6 | 1.19e6 | Cpr67B (GeneID 39081) | DRSC10373
5.49e5 | – | 7.92e5 | – | CG9213 (GeneID 32490) | DRSC20170
1.44e6 | 1.53e6 | 1.03e6 | 1.09e6 | Nop56 (GeneID 42633) | DRSC14699
1.65e6 | 1.57e6 | 1.10e6 | 1.24e6 | C15 (GeneID 42544) | DRSC13495
1.37e6 | 1.35e6 | 9.06e5 | 1.01e6 | C15 (GeneID 42544) | DRSC14169
1.58e6 | 1.56e6 | 1.04e6 | 1.14e6 | Neb-cGP (GeneID 50417) | DRSC17991
1.51e6 | 1.46e6 | 1.03e6 | 1.13e6 | boi (GeneID 31229) | DRSC18425
1.52e6 | 1.48e6 | 9.63e5 | 1.14e6 | boi (GeneID 31229) | DRSC18598
1.61e6 | 1.58e6 | 9.05e5 | 9.22e5 | cpb (GeneID 33346) | DRSC00809
1.60e6 | 1.68e6 | 1.16e6 | 1.31e6 | uif (GeneID 33983) | DRSC00963
1.56e6 | 1.43e6 | 1.08e6 | 1.23e6 | uif (GeneID 33983) | DRSC03427
5.82e5 | – | 8.79e5 | – | CG8578 (GeneID 32540) | DRSC20114
1.26e6 | 1.36e6 | 1.18e6 | 6.93e5 | CG1271 (GeneID 38364) | DRSC08290
1.33e6 | 1.40e6 | 1.06e6 | 1.11e6 | CysRS-m (GeneID 36563) | DRSC07129
1.51e6 | 1.47e6 | 1.16e6 | 1.30e6 | CG3604 (GeneID 33593) | DRSC00618
1.24e6 | 1.35e6 | 1.01e6 | 9.50e5 | Mgtor (GeneID 36264) | DRSC05958

Entries above marked active, once more:
Kc cell number, rep 1 | Kc cell number, rep 2 | S2R+ cell number, rep 1 | S2R+ cell number, rep 2 | gene knocked down | dsRNA
1.17e6 (active) | 1.29e6 | 7.97e5 | 9.81e5 | CG5953 (GeneID 34985) | DRSC02914
